Substitutions are numbered along the chain they refer to. No constants are given. Whether binding was seen depends on the method and setting. In cells and extracts the contact can be indirect. Some results given as binding are weak or reduced against the parent protein; the word gives no strength. For part of these data: Where a sequence is shown, tags or fusion partners need not be part of it.
Tests used:
[1] = molecular target: T1, TNF receptor 1 (TNFR1), endogenous in L929 cells (mouse (endogenous in L929)) (UniProt P25118); assay: co-IP; complex I immunoprecipitation from RIP1 KO L929 cells reconstituted with RIP1 variants; cells treated with 10 ng/ml Flag-mTNF, lysate precipitated with anti-Flag M2 beads at 4 °C overnight, western blotting
T1 sequence: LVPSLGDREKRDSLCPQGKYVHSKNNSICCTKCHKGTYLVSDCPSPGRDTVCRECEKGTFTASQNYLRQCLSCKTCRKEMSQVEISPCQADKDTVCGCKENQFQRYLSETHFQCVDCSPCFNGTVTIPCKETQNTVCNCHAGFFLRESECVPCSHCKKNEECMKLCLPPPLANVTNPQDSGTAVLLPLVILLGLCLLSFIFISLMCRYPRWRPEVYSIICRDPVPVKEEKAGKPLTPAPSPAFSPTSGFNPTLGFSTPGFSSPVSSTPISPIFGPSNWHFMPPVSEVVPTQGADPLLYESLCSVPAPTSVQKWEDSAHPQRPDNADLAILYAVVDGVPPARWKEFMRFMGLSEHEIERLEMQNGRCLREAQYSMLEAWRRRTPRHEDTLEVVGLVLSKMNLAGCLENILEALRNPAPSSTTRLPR

[2] = molecular target: T2, Flag-tagged wildtype RIP1 reconstituted in RIP1 KO L929 cells (mouse), Q60855; assay: co-IP; necrosome immunoprecipitation from L929 cells (Flag-RIP1 knock-in or RIP1 KO reconstituted with RIP1 variants) treated with mTNF + zVAD, with or without BHA/amytal; anti-Flag M2 beads at 4 °C overnight; blots with anti-RIP1, anti-RIP3, anti-FADD; conditions: remark: other sources report otherwise
T2 chain: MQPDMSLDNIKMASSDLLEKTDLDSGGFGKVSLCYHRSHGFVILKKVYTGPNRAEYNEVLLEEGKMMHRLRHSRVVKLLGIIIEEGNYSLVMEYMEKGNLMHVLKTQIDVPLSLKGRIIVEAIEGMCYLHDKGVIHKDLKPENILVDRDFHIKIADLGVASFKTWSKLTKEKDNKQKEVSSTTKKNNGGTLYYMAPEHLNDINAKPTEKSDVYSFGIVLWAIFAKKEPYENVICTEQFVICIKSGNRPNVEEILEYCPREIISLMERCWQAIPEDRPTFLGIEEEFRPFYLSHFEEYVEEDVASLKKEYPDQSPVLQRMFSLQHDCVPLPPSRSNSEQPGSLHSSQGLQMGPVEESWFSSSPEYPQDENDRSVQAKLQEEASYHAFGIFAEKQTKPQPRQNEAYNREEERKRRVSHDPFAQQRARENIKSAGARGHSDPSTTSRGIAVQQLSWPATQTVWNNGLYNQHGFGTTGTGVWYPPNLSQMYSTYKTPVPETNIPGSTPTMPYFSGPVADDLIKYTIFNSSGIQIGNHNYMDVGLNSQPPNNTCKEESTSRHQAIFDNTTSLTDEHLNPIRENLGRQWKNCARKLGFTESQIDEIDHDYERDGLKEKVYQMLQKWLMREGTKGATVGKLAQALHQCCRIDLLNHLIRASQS

[3] = molecular target: T3, Flag-RIP1 (Flag tag knocked in at the N-terminal of Rip1 in L929 cells) (mouse (endogenous in L929)), Q60855; assay: as above; conditions: remark: other sources report otherwise
T3 chain: T2 chain

[4] = molecular target: T4, Flag-RIP1 (Flag tag knocked in at the N-terminal of Rip1 in L929 cells) (mouse (endogenous in L929)) (UniProt Q60855); assay: as above
T4 sequence: T2 chain

[5] = molecular target: T5, Flag-tagged WT RIP1 expressed in RIP1 KO HEK293T cells (mouse), Q60855; assay: co-IP; co-expression in RIP1 KO HEK293T cell line and co-immunoprecipitation; details in Supplementary Fig. 7, not shown; conditions: remark: other sources report otherwise
T5 chain: T2 chain

[6] = molecular target: T6, Flag-tagged KK-AT RIP1 expressed in RIP1 KO HEK293T cells (mouse) (UniProt Q60855); assay: as above
T6 sequence: T2 chain with K45A, K46T

[7] = molecular target: T7, KK-AT-S161E RIP1 co-expressed in RIP1 KO HEK293T cells (mouse) (UniProt Q60855); assay: as above
T7 sequence: T2 chain with K45A, K46T, S161E

[8] = molecular target: T8, Flag-tagged WT RIP1 expressed in RIP1 KO HEK293T cells (mouse) (UniProt Q60855); assay: as above
T8 sequence: T2 chain

B1: TRAF2, endogenous in L929 cells (protein, UniProt P39429 1-501)
chain: MAAASVTSPGSLELLQPGFSKTLLGTRLEAKYLCSACKNILRRPFQAQCGHRYCSFCLTSILSSGPQNCAACVYEGLYEEGISILESSSAFPDNAARREVESLPAVCPNDGCTWKGTLKEYESCHEGLCPFLLTECPACKGLVRLSEKEHHTEQECPKRSLSCQHCRAPCSHVDLEVHYEVCPKFPLTCDGCGKKKIPRETFQDHVRACSKCRVLCRFHTVGCSEMVETENLQDHELQRLREHLALLLSSFLEAQASPGTLNQVGPELLQRCQILEQKIATFENIVCVLNREVERVAVTAEACSRQHRLDQDKIEALSNKVQQLERSIGLKDLAMADLEQKVSELEVSTYDGVFIWKISDFTRKRQEAVAGRTPAIFSPAFYTSRYGYKMCLRVYLNGDGTGRGTHLSLFFVVMKGPNDALLQWPFNQKVTLMLLDHNNREHVIDAFRPDVTSSSFQRPVSDMNIASGCPLFCPVSKMEAKNSYVRDDAIFIKAIVDLTGL
With B1 the binding [1] was “binds”.

B2: TRADD, endogenous in L929 cells (protein, UniProt Q3U0V2 1-310)
chain: MAAGQNGHEEWVGSAYLFLESAVDKVILSEAYTDPKKKVAIYKALQTALSESGDSSDVLQILKIHCSDPQLIVQLRFCGRVLCGRFLQAYREGALRTALQRCMAPALAQEALRLQLELRAGAEQLDSWLTDEERCLNYILAQKPDRLRDEELAELEDELCKLTCDCTGQGGAIQVASAGSKFPVSSPTEEKPLPAACQTFLFHGQLVVNRPLTLQDQQTFARSVGLKWRRVGRSLQRNCRALRDPALDSLAYEYERDGLYEQAFQLLRRFMQAEGRRATLQRLVEALEENELTSLAEDLLGQAEPDGGLA
In the case of B2, the binding [1] is reported as “binds”.

B3: RIP3, endogenous in L929 cells, Q9QZL0 1-486 (protein)
chain: MSSVKLWPTGASAVPLVSREELKKLEFVGKGGFGVVFRAHHRTWNHDVAVKIVNSKKISWEVKAMVNLRNENVLLLLGVTEDLQWDFVSGQALVTRFMENGSLAGLLQPECPRPWPLLCRLLQEVVLGMCYLHSLNPPLLHRDLKPSNILLDPELHAKLADFGLSTFQGGSQSGSGSGSGSRDSGGTLAYLDPELLFDVNLKASKASDVYSFGILVWAVLAGREAELVDKTSLIRETVCDRQSRPPLTELPPGSPETPGLEKLKELMIHCWGSQSENRPSFQDCEPKTNEVYNLVKDKVDAAVSEVKHYLSQHRSSGRNLSAREPSQRGTEMDCPRETMVSKMLDRLHLEEPSGPVPGKCPERQAQDTSVGPATPARTSSDPVAGTPQIPHTLPFRGTTPGPVFTETPGPHPQRNQGDGRHGTPWYPWTPPNPMTGPPALVFNNCSEVQIGNYNSLVAPPRTTASSSAKYDQAQFGRGRGWQPFHK
In the case of B3, the binding [2] is reported as “binds” and the binding [3] is reported as “binds”.

B4: FADD, endogenous in L929 cells (protein, UniProt Q61160 1-205)
chain: MDPFLVLLHSLSGSLSGNDLMELKFLCRERVSKRKLERVQSGLDLFTVLLEQNDLERGHTGLLRELLASLRRHDLLQRLDDFEAGTATAAPPGEADLQVAFDIVCDNVGRDWKRLARELKVSEAKMDGIEEKYPRSLSERVRESLKVWKNAEKKNASVAGLVKALRTCRLNLVADLVEEAQESVSKSENMSPVLRDSTVSSSETP
In the case of B4, the binding [4] is reported as “binds”.

B5: RIP3 co-expressed with RIP1 in RIP1 KO HEK293T cells, Q9QZL0 1-486 (protein)
chain: B3 chain
In the case of B5, the binding [5] is reported as “binds”.

B6: FADD co-expressed with RIP1 in RIP1 KO HEK293T cells (protein, UniProt Q61160 1-205)
chain: B4 chain
With B6 the binding [6] was “binds”, the binding [7] was “binds” and the binding [8] was “binds”.

— PMC5309790
